How the values were obtained:
in vivo [1] = settings: rat, iv
in vivo [2] = settings: rat, iv; remark: listed apart in the source
in vivo [3] = settings: rat, iv; remark: listed apart in the source
in vivo [4] = settings: rat, iv; remark: listed apart in the source
in vivo [5] = settings: rat, po

`C[C@H](O)C(=O)N1CC[C@H](N(Cc2cc(Cl)ccc2Cl)c2ccc(C#N)c(Cl)c2)C1` showed a clearance (in vivo [1]) of 150 mL/min/kg, a Cmax (in vivo [2]) of 134 ng/mL and a half-life (in vivo [3]) of 1.1 h. It also gave a Vd (in vivo [4]) of 10 L/kg and a bioavailability (in vivo [5]) of 100%.
